# Assay results as given in PubChem BioAssay AID1347423 (Functional Genomics Laboratory (NCATS/FGL), 2020).
# Hit rate of the full screen: of about 52,000 sequences, about 210 (0.4%) were called active.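 How the source made its calls: active means gene whose silencing raises cell survival under the drug, median off-target-corrected z-score across its silencing RNAs 2 or more; inactive means the rest.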 This is one part of the list.
# Assay: Resistance to Poly (ADP-Ribose) Polymerase inhibitor: Gene Identification via Genome-wide siRNA Screen
# Settings: mouse BRCA2 R2336H ES cells, olaparib, CellTiter-Glo viability; active compounds read high
# Method in brief: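 Mouse BRCA2 R2336H ES cells were reverse-transfected with siRNA (20 nM final), treated at 48 h with 500 nM olaparib, and read by CellTiter-Glo after 72 h. Scores: MAD-based z per siRNA, median per gene, seed off-target correction.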
row,Sequence,z-score
1,CCAAGCUUAUUGACAAUGATT against Spna1,inactive: -0.376
2,GGGCUUUCCCAGUUCCUAATT against Bmp6,inactive: 1.82
3,GCUGGAAACCCGUAUACUATT against Krt1-23,inactive: -0.209
4,GCAGUAUUGAUAAAAGUACTT against D430039N05Rik,inactive: -0.343
5,GGACACCACGUUCACCAAGTT against Rnpc1,inactive: 0.22
6,GGAUUUGGCUAUAAGGGUUTT against Ppia,inactive: -1.06
7,GCAGUUUGGGAGCCCAAUATT against Slc16a13,inactive: -1.93
8,GGUUCUUACAGCUAUAGAATT against Spo11,inactive: 1.51
9,GGAUCAACUUUGACAAAUATT against Rpl27a,inactive: -3.15
10,GCGAGAGCUUCUGUGAAAATT against Rnase13,inactive: -1.22
11,GCGCGUACAUCUUGUCUCATT against 1110014F12Rik,inactive: -0.524
12,GGAUAUAUACCUAUUCUGATT against Wdr50,inactive: -0.432
13,GGCCAGUCGGAAAAUCUUATT against Atp7b,inactive: 0.851
14,GGCCUUCACGUCUGGAAAUTT against Cnot10,inactive: -1.26
15,GGAAGUCCUGCCAUUUAUATT against Ranbp2,inactive: -2.76
16,GGAAAAUGAGAUCAUGCCCTT against Sdf4,inactive: 0.0489
17,GCCAGUAUGCUGUAUGGCUTT against Bcas3,inactive: 0.521
18,GGACUUUGUUGUAAAGCACTT against Asgr2,inactive: 1.7
19,GGAACCCAAGUGCUUAGAATT against 2410016O06Rik,inactive: -0.532
20,GCGGGUAUGAUGGUACCUUTT against Pomt2,inactive: -0.217
21,GGUCAAAGAUGCUAUAAAATT against Olfr993,inactive: 1.04
22,GGAUCUACGUAGCAUUUCATT against Misc12,inactive: -0.912
23,CCCAGAAAUUUCAACUACATT against Clm3,inactive: 1
24,GGAUCCUGACAACCCUGUGTT against 3110056O03Rik,inactive: 0.833
25,GGUCAGAAUCUUUGUUCCUTT against Ndufs4,inactive: -1.12
26,GGGUGAAAUCUAUCUCCAUTT against Hrb,inactive: -1.73
27,CCCGUUGCUUUAGAGCUCUTT against Dph2l2,inactive: 1.68

# Given with bars between the fields: entries from further up.
row | Sequence | z-score
5 | GGACACCACGUUCACCAAGTT against Rnpc1 | inactive: 0.22
19 | GGAACCCAAGUGCUUAGAATT against 2410016O06Rik | inactive: -0.532
20 | GCGGGUAUGAUGGUACCUUTT against Pomt2 | inactive: -0.217

# (cont.)

row,Sequence,z-score
1,GGUUUUACCGAUGAUGCAUTT against Pcdhb20,inactive: -1.1
2,GGACAUUUUGAACUGUUAUTT against BC046386,inactive: 0.0833
3,GGUAGAUGCUUUGAGCUUCTT against Enpp2,inactive: 0.503
4,GGAGAGUAUGUACUCACAUTT against Lnk,inactive: -0.255
5,GGGACUUUGGGCUAAAUAGTT against 9030418M05Rik,inactive: -2
6,GCUAUUCGUCAAUGCUGACTT against Abcf1,inactive: -0.879
7,CCUCUCAUUGGGAUGUUACTT against 4933425K02Rik,inactive: -2.8
8,GGAGACAUAUGAGACUCUGTT against Fcer1g,inactive: -0.333
9,GGAAACCUUCAGGUUCUGATT against Cdon,inactive: -1.81
10,CGUAGGACUGAAUCAGCUUTT against Slc13a3,inactive: -0.339
11,GUUGUGCCUCCCUCAAUCATT against Ndufa7,inactive: -0.189
12,GGCGAAUGUUUACGAGAACTT against Sh2d1c,inactive: 1.22
13,GACCACAGAUGACAUGGUGTT against Il12a,inactive: 0.404
14,CGGAAUCAAGGACCGAGUUTT against Ndufab1,inactive: -0.9
15,GCCAAGAAAAUCAAGUCUCTT against Pknox2,inactive: 0.0675
16,GGCAAAUCCCGUUCACUGATT against Magel2,inactive: 0.062
17,GGUCCAACGAUAUGUUGACTT against LOC545288,inactive: 0.51
18,GCGGAACUGACUUUCCUGATT against Rhot2,inactive: -0.192
19,CCAACUCCUGGAAGAUGCATT against Olfr1314,inactive: -0.758
20,CCUUGUGGUUUUCGUAACGTT against Mrgprb1,inactive: 1.22
21,CCACAAAUGCUUCAAGCUATT against 0610030I09Rik,inactive: 0.339
22,GGAUUAUAAGUGGAGAAUGTT against Sytl5,inactive: 0.626
23,GGACUUCAUGCAUCUUACUTT against Stat1,inactive: 1.9
24,GGAUCUCCUGCUUGAACUGTT against Adam33,inactive: -0.375
25,GGAAAAUACAGCGCGAAUUTT against Nexn,inactive: -0.415
26,GGAUGAAGAUGACUUUGAUTT against Hnrpul1,inactive: -0.591
27,GGACCUCUAGCUGGAACACTT against Il17c,inactive: -0.521

row,Sequence,z-score
1,CCAUCACUCGAGCUUCUAGTT against Dhx30,inactive: 2.03
2,GGCACUUCAAGGAGUUUUUTT against Lig4,inactive: -0.102
3,GCCGGUCUUUCAAGAAGAUTT against Lnx1,inactive: -1.59
4,GGCUACCAGGUUCUUAAACTT against Alox12b,inactive: -0.271
5,GCUGAACAGGUGGUACAAUTT against B3gnt1,inactive: -0.38
6,GGACAAGCUCCAAAACAACTT against Sfrs4,inactive: -1.45
7,CCCUCUCCGAUAUAACACUTT against Olfr672,inactive: -0.0199
8,GGUUAACUGAAUCAAAAAGTT against Pdhx,inactive: 1.41
9,CCUUCAGAUCAUUCUUAGATT against C530050O22Rik,inactive: -0.371
10,GGAUGAUGAGGAUGACUACTT against Trap1a,inactive: -0.824
11,GGAAAAAAUGGAGUUAUGUTT against C230096C10Rik,inactive: 0.298
12,GGAAUUUCCCAAAAGCACUTT against Nubp2,inactive: -0.745
13,GCCAGAGCAUGAGUGAAAATT against Sephs2,inactive: 0.134
14,GGUGGAAGACAAUGAAAUUTT against Ftsj1,inactive: 0.312
15,CCUCGACACUACUGUGUUATT against Mvp,inactive: -0.829
16,GGGCUGUAUAUAAAAUAUCTT against Gprc5b,inactive: 0.116
17,GGAAUUCAGGGAGCUUCGATT against 1700034M03Rik,inactive: 0.272
18,CGACCUGUUCGCCAUCAAATT against AI480556,inactive: 1.7
19,GGCUCUAACUGUGAGAAGATT against Dll3,inactive: -0.0834
20,GGCUUGUGGAUGAAUUGUATT against Cldn8,inactive: -0.504
21,CCCUUGUGAUGUGGUGAAGTT against Slc25a22,inactive: -1.58
22,GGAGAACUGAUAAAGCUUUTT against Tas2r105,inactive: 0.757
23,GGUUGAUGAAAAAACUGUATT against Sh3d1B,inactive: 1.02
24,CCCUUCCAACAAUUAUACUTT against Tmem27,inactive: 1.04
25,GCCAAAUACGUGUAUGACUTT against Sfxn3,inactive: -0.0616
26,GGAAGUCUGUCCAAGGUAUTT against Olfr192,inactive: -0.595
27,GGUGGUAGCUUUGUACUUUTT against 4930519N16Rik,inactive: -1.35

row,Sequence,z-score
1,GGUGAGCAAGAACAAAAAGTT against BC051070,inactive: 1.04
2,GCUGAAAUCCUUAAUCUCGTT against Col6a3,inactive: 1.72
3,GUGAUGUCACCCACGAAAGTT against Erdr1,inactive: -0.327
4,GGCCACAAGAUACAUAUAUTT against Bmi1,inactive: -1.44
5,GCCCAUCUAGGAUCUAUAUTT against F9,inactive: -0.689
6,CCUUUAAAAGCGUAGGCAUTT against 2210008M09Rik,inactive: -1.87
7,GCGAUACAACUCUUAUGACTT against D030011O10Rik,inactive: -1.5
8,GGAAGUGUCCAGCAAUUAGTT against Stc2,inactive: -0.35
9,GGCAGAUGUGAAAAGUGCATT against 8430432M10Rik,inactive: 0.763
10,GCUCAGACUAGAUUAAUGUTT against Gmeb2,inactive: -1.12
11,CCUCAUUUAGAUGUCUUGATT against Ran,inactive: -1.91
12,GGUGAUUACUCUUAUGUGATT against Slc7a8,inactive: -0.0491
13,CGUGAAAGAUCAUCUCAGATT against 4933427D14Rik,inactive: -0.968
14,GGUCUCUGUAGAGAUGGCATT against 6820408C15Rik,inactive: 0.249
15,CGAAUGUUGAAUCUUCUUGTT against Cdv1,inactive: 0.0507
16,GGCAAAAGUGUGAACAGUUTT against Sftpb,inactive: -2.25
17,GGAGAAGAAGAAAGAGCGGTT against Gja3,inactive: -0.765
18,GGAUAUACAAGCACAAACUTT against Gje1,inactive: -1.15
19,CCUGCUACAAGUAUCUCAATT against Fdft1,inactive: 1.25
20,CCCUUAGCGACUUUUCUAATT against Eif5b,inactive: 0.831
21,GGAUGUGUUUGUGUGCAUGTT against Recql5,inactive: -0.205
22,GGCAUCUUUACAUUUGUGATT against Sap30,inactive: -0.574
23,GGAAUUUUAUUCAGAGGCUTT against Fmip,inactive: -0.836
24,GCUCAAGUAAUAGAAACUUTT against 2810405J04Rik,inactive: -0.398
